According to the supplement of paper PMC3334620:
In all, about 33,000 sequences were measured (“E-score (-0.5 to 0.5)”: median about -0.015, highest 2% from about 0.3 on). Some of the results follow.

The sequences below were run against T1, Abf1 (UniProt P14164) (assay: PBM E-score (8-mer binding enrichment) (E-score (-0.5 to 0.5)); higher = stronger / more preferred TF binding). Conditions: protein concentration: 200 nM; construct: GST-full length.
T1 sequence: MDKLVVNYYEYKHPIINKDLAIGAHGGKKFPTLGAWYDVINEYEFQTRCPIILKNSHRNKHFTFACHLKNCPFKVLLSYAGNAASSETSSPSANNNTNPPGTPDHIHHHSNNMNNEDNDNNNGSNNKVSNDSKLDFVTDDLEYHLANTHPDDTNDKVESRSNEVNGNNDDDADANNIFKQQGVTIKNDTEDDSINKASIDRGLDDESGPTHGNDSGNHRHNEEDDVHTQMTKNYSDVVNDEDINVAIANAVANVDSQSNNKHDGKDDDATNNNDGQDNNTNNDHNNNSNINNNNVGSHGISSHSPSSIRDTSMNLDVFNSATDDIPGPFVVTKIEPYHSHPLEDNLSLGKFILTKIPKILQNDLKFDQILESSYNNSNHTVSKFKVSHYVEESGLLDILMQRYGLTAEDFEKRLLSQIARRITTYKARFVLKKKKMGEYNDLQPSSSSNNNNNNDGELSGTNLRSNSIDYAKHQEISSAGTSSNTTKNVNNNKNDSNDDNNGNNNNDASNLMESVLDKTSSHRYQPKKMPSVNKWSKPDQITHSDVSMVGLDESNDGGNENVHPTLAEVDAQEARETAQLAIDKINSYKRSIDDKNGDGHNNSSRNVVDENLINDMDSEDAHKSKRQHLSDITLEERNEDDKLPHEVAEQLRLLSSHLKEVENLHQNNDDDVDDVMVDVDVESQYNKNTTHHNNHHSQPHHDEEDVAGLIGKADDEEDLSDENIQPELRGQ
Method: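 Universal 'all 10-mer' protein binding microarrays (Agilent AMADID 015681) probed with GST-tagged S. cerevisiae TFs (full-length or DBD) made by in vitro transcription/translation (PURExpress), about 100-200 nM. Bound TF was detected with fluorescent anti-GST. Each ungapped 8-mer (which stands for itself and its reverse complement) is scored by the PBM enrichment score (E-score), a modified Wilcoxon-Mann-Whitney statistic from -0.5 to +0.5, computed with the Universal PBM Analysis Suite. Scale: above 0.35 generally sequence-specific binding.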

| Sequence | PBM E-score |
| --- | --- |
| GATTGTGA | 0.107 |
| CCCAACCC | -0.21 |
| CAGAACTA | -0.262 |
| ACGCCACT | -0.224 |
| TAAGCGGA | -0.127 |
| CGTTAGCC | 0.0294 |
| ATCCAATA | 0.131 |
| AGCTACCG | -0.0848 |
| AGTGTACG | 0.146 |
| AAATAGGA | 0.12 |
| AGAGGGTA | 0.0332 |
| AACTGCTG | -0.0316 |
| CGCAGCCG | -0.0971 |
| CCGTTCTC | 0.217 |
| CGCTCAAA | -0.142 |
| CACTGACG | 0.0211 |
| GATAATTA | 0.217 |
| CCCCGGAG | -0.257 |
| GTCACAAA | 0.103 |
| AATTCTCT | -0.0531 |
| AAGGCGCT | -0.0643 |
| CGCTGCAA | 0.145 |
| CAGTTTGA | -0.0226 |
| ACACCTGT | -0.122 |
| GCCGCTCC | -0.195 |

| Sequence | PBM E-score |
| --- | --- |
| TATAAACA | -0.0416 |
| CGCTGACG | -0.0675 |
| TATGTGCA | -0.183 |
| GTACCCTA | -0.0203 |
| AACGTCTT | 0.169 |
| GCATCAGA | 0.172 |
| ACGAAACA | 0.245 |
| AAATTAAA | 0.193 |
| ACTGGCCA | -0.0393 |
| GTCTCCGA | -0.223 |
| AATCTGCC | -0.127 |
| GTCTGCCA | 0.136 |
| AACAACCT | -0.124 |
| AACACGTC | 0.0164 |
| AGGGTATC | -0.0493 |
| ACACTCTC | -0.0865 |
| AGCGAAAC | 0.0988 |
| GCATCTCC | -0.255 |
| GGTAGAAA | -0.119 |
| CGCCAACC | -0.238 |
| AGATATAT | 0.187 |
| CCGCCACA | -0.165 |
| CTTTTTCC | -0.034 |
| CCCAAACA | -0.0787 |
| CGCGATTA | 0.0309 |

| Sequence | PBM E-score |
| --- | --- |
| AATATCGC | 0.283 |
| ATTGATCA | 0.267 |
| AGTGACCC | 0.11 |
| GATTTCGC | 0.183 |
| CCACGCGC | -0.206 |
| GCGTGTAC | 0.159 |
| CCGTTGTA | 0.173 |
| GAGTTTCA | -0.0136 |
| CTCTAAAA | -0.0732 |
| CAAGTTAG | -0.0432 |
| AGTACGTC | 0.125 |
| AATACTTG | 0.168 |
| ATAGATCG | 0.103 |
| CACGCAGC | 0.00826 |
| AGGTCAGC | -0.0373 |
| CGCCTAAA | -0.0389 |
| TATATCAA | 0.145 |
| CCCATGCG | -0.239 |
| AAGATTTA | 0.0898 |
| GCAGCTAC | 0.0574 |
| CGTTCTAA | 0.0735 |
| AAGATGGG | -0.112 |
| GGCTCCCA | -0.285 |
| ATGGAGGG | -0.259 |
| ATTGCCGC | 0.0308 |

An excerpt of these results, as labelled records.
ATTGATCA
  PBM E-score: 0.267
AGTGACCC
  PBM E-score: 0.11
GATTTCGC
  PBM E-score: 0.183
CCACGCGC
  PBM E-score: -0.206

Carrying on:

| Sequence | PBM E-score |
| --- | --- |
| CAACCACC | -0.0676 |
| TCACCCAA | 0.14 |
| GCCGTCGA | 0.176 |
| ACCTGAAC | -0.323 |
| GCTGATCC | -0.0141 |
| AGTCCATG | -0.105 |
| CGGTACAA | 0.211 |
| AGAATAAC | -0.181 |
| AAAATATC | 0.177 |
| AGAAGCCT | 0.0484 |
| AGGCTGGC | -0.215 |
| CGGCCCGC | -0.121 |
| CGGTAGAG | -0.0305 |
| AGGCCTTG | -0.302 |
| AAACAACG | 0.0689 |
| GTGGATAA | 0.171 |
| GAGGTCGA | -0.00154 |
| CTAGCACC | -0.111 |
| ACCTTCCC | -0.057 |
| AGTTAAGA | 0.0808 |
| CGCTGACC | -0.0675 |
| AAGTTCAG | 0.0476 |
| AAACGCAG | -0.117 |
| AGCACTTG | -0.314 |
| GACTGGTA | -0.1 |

Nothing new here: entries from further up.

| Sequence | PBM E-score |
| --- | --- |
| AAACGCAG | -0.117 |
| AGCACTTG | -0.314 |
| GACTGGTA | -0.1 |

(next part)

| Sequence | PBM E-score |
| --- | --- |
| ACGTTGGC | -0.00455 |
| CGTATTGC | 0.106 |
| GGCGACCC | -0.247 |
| GACCATAC | -0.102 |
| CGGGAATA | 0.141 |
| AGCAGAAC | -0.0123 |
| CTTGGACC | -0.191 |
| GGGGTTAC | -0.261 |
| ACTAGAGA | -0.107 |
| CCGGTCTC | -0.28 |
| AGCATGCG | -0.057 |
| CGGGCGAC | -0.269 |
| AGTCGTGA | 0.249 |
| CTATGTGC | -0.0958 |
| GGGGGTTA | -0.338 |
| CGCCGTCC | 0.308 |
| CCGGGATA | 0.0683 |
| GTACCGGA | 0.0951 |
| AGTACTCA | -0.0128 |
| ACAATCCC | 0.00121 |
| AAGTTGGT | 0.0992 |
| CTACTATA | 0.0875 |
| ACAAGGAA | 0.0968 |
| GCGCGCAA | -0.0428 |
| CAAGTGTA | -0.238 |

Given in CSV form: entries from further up
Sequence,PBM E-score
ACGTTGGC,-0.00455
CGTATTGC,0.106
GGCGACCC,-0.247

Further results:

| Sequence | PBM E-score |
| --- | --- |
| GAGGACAA | -0.0425 |
| TACAACGA | 0.0333 |
| CAATTTGA | 0.0493 |
| CGGAGGTC | 0.133 |
| CCCCGCGA | -0.0954 |
| CCCTGACA | -0.0934 |
| ATAGCCCA | 0.0251 |
| ACTTCGCT | 0.0386 |
| CATAGTTA | -0.037 |
| ACACGCTG | -0.022 |
| CGAAACCC | -0.00384 |
| ATAAGCTC | 0.0741 |
| AATCTATG | 0.135 |
| CCAGCTGC | -0.335 |
| GATTTGAC | 0.0926 |
| CTGTCGGC | -0.0834 |
| AGCGTGGC | -0.0457 |
| TATGGTGA | 0.132 |
| CGATCCCG | -0.137 |
| GAGGGGCC | -0.265 |
| CTCCGCCA | -0.0449 |
| ACTTGCCC | -0.22 |
| AATATACT | 0.0129 |
| CCTTACAA | -0.189 |
| AGTAGTAG | -0.139 |

| Sequence | PBM E-score |
| --- | --- |
| CAAACTAA | 0.148 |
| AAGGATTC | -0.0468 |
| GGGACCAA | -0.215 |
| GCTCAGCC | -0.171 |
| ATTTGTCG | 0.188 |
| ACTATGAC | 0.103 |
| AGGGATGC | -0.137 |
| ACGAACTG | 0.164 |
| AAATTACG | 0.0659 |
| ACGTAAGT | 0.0702 |
| AAGCCTTG | -0.084 |
| GACTATGC | 0.00943 |
| GCCTGGCC | -0.0354 |
| ATACGATA | 0.282 |
| CCGGAGCC | -0.153 |
| ACCTTGAA | -0.0814 |
| CCTATCCA | -0.215 |
| TACACGAA | 0.337 |
| ATCCGTTG | 0.1 |
| GACCACCC | -0.0784 |
| TCACATCA | 0.224 |
| CCTCATGA | 0.143 |
| ACCTAGTC | 0.0259 |
| AGGGCTAT | -0.17 |
| ATGGATGA | 0.121 |

| Sequence | PBM E-score |
| --- | --- |
| CAAGAGGG | -0.207 |
| TACGGGAA | 0.0394 |
| AGGAGTTA | 0.0874 |
| CGGGAGAA | -0.219 |
| AACGTATG | 0.148 |
| ACCACCCG | -0.0365 |
| CAATTTCG | -0.0365 |
| ACTAATCA | 0.138 |
| ACACCGAG | -0.251 |
| CCTGGAAG | -0.107 |
| CTGCCGAA | -0.148 |
| AATGGAAG | 0.0424 |
| ACTGGCGA | -0.106 |
| ACGACATC | 0.303 |
| CACTACCC | -0.0124 |
| CCCGGAAA | -0.125 |
| ACTAGCGC | 0.0223 |
| AAAGAGAG | -0.214 |
| CAGGATCG | -0.0178 |
| CAGCCCGG | -0.185 |
| GCGCGTAC | 0.0985 |
| CATAAGGA | -0.101 |
| AGTCATCC | 0.188 |
| ATCGCTCC | 0.0885 |
| TCAAGAGA | 0.0894 |

| Sequence | PBM E-score |
| --- | --- |
| CTCCGACA | -0.181 |
| ACTCTTGG | -0.0601 |
| CCCATCGG | -0.0692 |
| AGGCTCTA | -0.247 |
| ATTATCAA | 0.193 |
| CCGCAACG | 0.117 |
| AACTGATC | -0.0192 |
| CCATCCAC | 0.0433 |
| TCATATCA | 0.315 |
| GTTGGATA | 0.137 |
| ATAGGGTG | -0.137 |
| ATAGAGGA | -0.0861 |
| ATGTAGCG | -0.163 |
| AGGCAGTG | -0.157 |
| ACCTCTCG | -0.178 |
| GAGATAAA | 0.157 |
| ACCTCAGA | -0.165 |
| AATGGATC | 0.113 |
| ACCGGCCA | -0.177 |
